One data set concerns biotinyl-Ile-oxazolone. The experiment in a line: self-aminoacylation, catalytic enhancement (BIO) (fold over background); higher = more active; k-Seq, kA / k0A0; sequences stand for … in GGGAAUGGAUCCACAUCUACGAAUUC…UUCACUGCAGACUUGACGAAGCUG
Summed up: (§1)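 Mutagenized RNA pools with a 21-nt variable region (0.43 μM) were reacted with each biotinyl-aminoacyl-oxazolone at 2–1250 μM for 90 minutes at room temperature, in 50 μL HEPES/NaCl/KCl/MgCl2/CaCl2 buffer containing 5% acetonitrile at pH 6.9–7.0. RNA captured on streptavidin was quantified by triplicate qPCR and by Illumina sequencing. The fraction reacted for each sequence was fit to a pseudo-first-order model with bootstrapping, and catalytic enhancement is the median kA divided by the uncatalyzed rate, taken as the low-activity peak of a bimodal Gaussian fit.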

The subject of the next data set is biotinyl-Leu-oxazolone. The experiment in a line: self-aminoacylation, catalytic enhancement (BLO) (fold over background); higher = more active; k-Seq, kA / k0A0; sequences stand for … in GGGAAUGGAUCCACAUCUACGAAUUC…UUCACUGCAGACUUGACGAAGCUG
Summed up: as §1

The test system of a further data set is biotinyl-Val-oxazolone. The experiment in a line: self-aminoacylation, catalytic enhancement (BVO) (fold over background); higher = more active; k-Seq, kA / k0A0; sequences stand for … in GGGAAUGGAUCCACAUCUACGAAUUC…UUCACUGCAGACUUGACGAAGCUG
The method, boiled down:
as §1

A further data set deals with biotinyl-Met-oxazolone. The experiment in a line: self-aminoacylation, catalytic enhancement (BMO) (fold over background); higher = more active; k-Seq, kA / k0A0; sequences stand for … in GGGAAUGGAUCCACAUCUACGAAUUC…UUCACUGCAGACUUGACGAAGCUG
The method, boiled down:
as §1

The next data set deals with biotinyl-Phe-oxazolone. The experiment in a line: self-aminoacylation, catalytic enhancement (BFO) (fold over background); higher = more active; k-Seq, kA / k0A0; sequences stand for … in GGGAAUGGAUCCACAUCUACGAAUUC…UUCACUGCAGACUUGACGAAGCUG
The method, boiled down: as §1

For another data set, the system named is biotinyl-Trp-oxazolone. The experiment in a line: self-aminoacylation, catalytic enhancement (BWO) (fold over background); higher = more active; k-Seq, kA / k0A0; sequences stand for … in GGGAAUGGAUCCACAUCUACGAAUUC…UUCACUGCAGACUUGACGAAGCUG
The method, boiled down: as §1

Variants at the background level are over-represented here.

As for “AUUACCCUGGUUAUCGAGCGA [Fam2.1 aminoacylation ribozyme variant]”, the self-aminoacylation in the data set on biotinyl-Ile-oxazolone turned out to be 1.02; in the data set on biotinyl-Leu-oxazolone it was 1.4; in the data set with biotinyl-Val-oxazolone it was 1.02; in the data set with biotinyl-Met-oxazolone it was 0.97; in the data set on biotinyl-Phe-oxazolone, 0.773; with biotinyl-Trp-oxazolone, 1.19.

As to “CUACUUCAAACAAUCGUUCUC [Fam1A.1 aminoacylation ribozyme variant]”, the self-aminoacylation came to 0.466 in the data set with biotinyl-Ile-oxazolone; 0.435 in the data set on biotinyl-Leu-oxazolone; 0.642 in the data set with biotinyl-Val-oxazolone; 0.483 in the data set on biotinyl-Met-oxazolone; 1.2 in the data set on biotinyl-Phe-oxazolone; 0.523 in the data set on biotinyl-Trp-oxazolone.

For “AAGUUUGCUGAAAGUCGCAAG [Fam3.1 aminoacylation ribozyme variant]”, the self-aminoacylation in the data set on biotinyl-Ile-oxazolone came out at 1.02; with biotinyl-Leu-oxazolone, 1.22; with biotinyl-Val-oxazolone, 1.22; with biotinyl-Met-oxazolone it was 1.01; in the data set with biotinyl-Phe-oxazolone, 1.74; in the data set on biotinyl-Trp-oxazolone, 1.2.

As for “AAGUUUGCUAACAGUUGCAAG [Fam3.1 aminoacylation ribozyme variant]”, the self-aminoacylation in the data set with biotinyl-Ile-oxazolone worked out at 0.733; in the data set on biotinyl-Leu-oxazolone, 0.84; in the data set with biotinyl-Val-oxazolone, 0.642; in the data set on biotinyl-Met-oxazolone it was 0.943; in the data set with biotinyl-Phe-oxazolone, 1.24; in the data set on biotinyl-Trp-oxazolone it was 0.988.

Regarding “AAGUGUGCAAAUAGUCGCAAG [Fam3.1 aminoacylation ribozyme variant]”, the self-aminoacylation in the data set on biotinyl-Ile-oxazolone came out at 1.18; in the data set with biotinyl-Leu-oxazolone it was 0.923; in the data set on biotinyl-Val-oxazolone, 1.07; with biotinyl-Met-oxazolone, 1.13; with biotinyl-Phe-oxazolone, 1.08; in the data set on biotinyl-Trp-oxazolone, 1.03.

With “CUACGUCAAACAAUCGGUCUU [Fam1A.1 aminoacylation ribozyme variant]”, the self-aminoacylation in the data set on biotinyl-Ile-oxazolone is 1.03; in the data set with biotinyl-Leu-oxazolone, 1.03; with biotinyl-Val-oxazolone, 1.23; in the data set on biotinyl-Met-oxazolone it was 1.01; in the data set with biotinyl-Phe-oxazolone, 0.732; in the data set with biotinyl-Trp-oxazolone it was 1.55.

For “CUACUUCAAAUGAUCGGUCUG [Fam1A.1 aminoacylation ribozyme variant]”, the self-aminoacylation was 0.972 in the data set with biotinyl-Ile-oxazolone; 0.76 with biotinyl-Leu-oxazolone; 1.06 in the data set with biotinyl-Val-oxazolone; 0.864 with biotinyl-Met-oxazolone; 1.17 with biotinyl-Phe-oxazolone; 1.22 in the data set with biotinyl-Trp-oxazolone.

In the case of “CAGUAUGCUAAUAGUCGCAAG [Fam3.1 aminoacylation ribozyme variant]”, the self-aminoacylation with biotinyl-Ile-oxazolone was 1.2; in the data set with biotinyl-Leu-oxazolone it was 1.52; in the data set on biotinyl-Val-oxazolone it was 0.949; with biotinyl-Met-oxazolone, 1.34; in the data set on biotinyl-Phe-oxazolone it was 1.61; with biotinyl-Trp-oxazolone it was 1.28.

Consider “AAGUUUGUUAAUAGUCGCAAC [Fam3.1 aminoacylation ribozyme variant]”, for which the self-aminoacylation amounted to 1.12 with biotinyl-Ile-oxazolone; 1.15 with biotinyl-Leu-oxazolone; 1.02 with biotinyl-Val-oxazolone; 0.805 in the data set on biotinyl-Met-oxazolone; 1.39 in the data set on biotinyl-Phe-oxazolone; 1.29 with biotinyl-Trp-oxazolone.

As to “CUACUCCAAACAAUCAGUCUG [Fam1A.1 aminoacylation ribozyme variant]”, the self-aminoacylation with biotinyl-Ile-oxazolone was 0.71; in the data set with biotinyl-Leu-oxazolone, 0.601; in the data set on biotinyl-Val-oxazolone, 0.728; in the data set on biotinyl-Met-oxazolone it was 0.67; in the data set with biotinyl-Phe-oxazolone, 1.53; with biotinyl-Trp-oxazolone it was 1.05.

On to “AUUCUCCUAGGUCCUCGGGUG [Fam2.2 aminoacylation ribozyme variant]”, for which the self-aminoacylation with biotinyl-Ile-oxazolone is 4.72; with biotinyl-Leu-oxazolone, 10.5; with biotinyl-Val-oxazolone, 4.54; in the data set with biotinyl-Met-oxazolone, 6.44; in the data set on biotinyl-Phe-oxazolone it was 54.1; in the data set on biotinyl-Trp-oxazolone, 7.62.

Consider “CAGUUUACUAAUAGUCGCAAG [Fam3.1 aminoacylation ribozyme variant]”, for which the self-aminoacylation in the data set on biotinyl-Ile-oxazolone came out at 1.29; with biotinyl-Leu-oxazolone it was 1.17; in the data set with biotinyl-Val-oxazolone it was 1.09; with biotinyl-Met-oxazolone, 1.39; in the data set with biotinyl-Phe-oxazolone it was 1.87; in the data set on biotinyl-Trp-oxazolone, 1.27.

Turning to “GUUACCCUGGUCAUCGAGAGA [Fam2.1 aminoacylation ribozyme variant]”, the self-aminoacylation with biotinyl-Ile-oxazolone came to 1.32; in the data set on biotinyl-Leu-oxazolone, 1.9; in the data set on biotinyl-Val-oxazolone it was 1.74; in the data set on biotinyl-Met-oxazolone, 2.96; in the data set with biotinyl-Phe-oxazolone it was 2.82; in the data set with biotinyl-Trp-oxazolone it was 3.07.

For the sequence “AUUCACCUAGGCCAUCGGGUC [Fam2.2 aminoacylation ribozyme variant]”, the self-aminoacylation in the data set with biotinyl-Ile-oxazolone came out at 1.08; with biotinyl-Leu-oxazolone it was 1.13; in the data set with biotinyl-Val-oxazolone, 1.73; with biotinyl-Met-oxazolone, 1.1; in the data set on biotinyl-Phe-oxazolone it was 0.438; with biotinyl-Trp-oxazolone it was 1.99.

Turning to “CCAUACUUCUAGCAAUCGGUC [Fam1B.1 aminoacylation ribozyme variant]”, the self-aminoacylation with biotinyl-Ile-oxazolone worked out at 0.907; with biotinyl-Leu-oxazolone, 0.715; in the data set on biotinyl-Val-oxazolone it was 0.871; in the data set on biotinyl-Met-oxazolone, 0.642; in the data set with biotinyl-Phe-oxazolone, 0.913; in the data set on biotinyl-Trp-oxazolone, 0.637.

As for “CAACUUCAAACAAUCGGACUG [Fam1A.1 aminoacylation ribozyme variant]”, the self-aminoacylation with biotinyl-Ile-oxazolone stood at 1.26; in the data set on biotinyl-Leu-oxazolone, 1.41; in the data set on biotinyl-Val-oxazolone it was 0.945; with biotinyl-Met-oxazolone it was 0.952; in the data set with biotinyl-Phe-oxazolone, 19.2; with biotinyl-Trp-oxazolone, 10.6.

For “AUUACCCAGGUCAUCGAGUCA [Fam2.1 aminoacylation ribozyme variant]”, the self-aminoacylation in the data set with biotinyl-Ile-oxazolone came out at 0.823; in the data set on biotinyl-Leu-oxazolone it was 0.858; in the data set on biotinyl-Val-oxazolone, 1.02; with biotinyl-Met-oxazolone, 0.771; in the data set with biotinyl-Phe-oxazolone, 0.818; with biotinyl-Trp-oxazolone it was 0.484.

Take “CUACUUCAAACAGUCCGUCUG [Fam1A.1 aminoacylation ribozyme variant]”: the self-aminoacylation with biotinyl-Ile-oxazolone is 0.872; with biotinyl-Leu-oxazolone, 0.652; in the data set with biotinyl-Val-oxazolone, 0.68; in the data set with biotinyl-Met-oxazolone, 0.698; in the data set with biotinyl-Phe-oxazolone it was 0.875; in the data set on biotinyl-Trp-oxazolone, 0.486.

With “CUACUUCACACAAUCAGUCUG [Fam1A.1 aminoacylation ribozyme variant]”, the self-aminoacylation in the data set on biotinyl-Ile-oxazolone was determined as 0.729; with biotinyl-Leu-oxazolone, 0.595; in the data set with biotinyl-Val-oxazolone, 0.799; with biotinyl-Met-oxazolone, 0.626; with biotinyl-Phe-oxazolone it was 1.2; in the data set on biotinyl-Trp-oxazolone, 0.65.

In the case of “ACGUUUGCUAAUAGCCGCAAG [Fam3.1 aminoacylation ribozyme variant]”, the self-aminoacylation in the data set on biotinyl-Ile-oxazolone is 1.71; in the data set with biotinyl-Leu-oxazolone, 1.41; in the data set with biotinyl-Val-oxazolone it was 1.52; in the data set on biotinyl-Met-oxazolone it was 1.72; in the data set on biotinyl-Phe-oxazolone, 1.8; with biotinyl-Trp-oxazolone, 1.28.

As for “CUACUACAAACAAUCGCUCUG [Fam1A.1 aminoacylation ribozyme variant]”, the self-aminoacylation in the data set with biotinyl-Ile-oxazolone was determined as 0.702; with biotinyl-Leu-oxazolone it was 0.509; with biotinyl-Val-oxazolone it was 0.639; with biotinyl-Met-oxazolone, 0.521; in the data set on biotinyl-Phe-oxazolone, 0.783; in the data set with biotinyl-Trp-oxazolone, 0.522.

Take “GUUACCCUAGUCAUCGAGUGA [Fam2.1 aminoacylation ribozyme variant]”: the self-aminoacylation with biotinyl-Ile-oxazolone is 3.81; in the data set with biotinyl-Leu-oxazolone it was 6.93; in the data set on biotinyl-Val-oxazolone, 3.33; with biotinyl-Met-oxazolone, 6.66; in the data set on biotinyl-Phe-oxazolone, 28.1; in the data set on biotinyl-Trp-oxazolone, 7.77.

Take “AUUCACCCAGGUCAUCGGUUG [Fam2.2 aminoacylation ribozyme variant]”: the self-aminoacylation in the data set on biotinyl-Ile-oxazolone was determined as 1.05; in the data set on biotinyl-Leu-oxazolone, 1.57; with biotinyl-Val-oxazolone, 1.22; in the data set on biotinyl-Met-oxazolone, 1.38; in the data set on biotinyl-Phe-oxazolone, 0.67; in the data set on biotinyl-Trp-oxazolone, 1.26.

The values are drawn from the supplement of paper PMC9233669.
